# Percent effect of library compounds

Measurements from “University of Dundee, Small-Polar-MMV Screening Library” (2021), ChEMBL document CHEMBL3988442.

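Phenotypic screen: M. tuberculosis growth, cholesterol and DPPC medium, 4 days; the read-out is not stated. Compounds at 50 µM. Direction is inferred from retests: higher values go with more growth inhibition. Size under these conditions: about 69,000 compounds, about 370 of them at 50% or above in at least one test.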

Results are given as percent effect. How 0% and 100% were set is not recorded. Most values in the screen are low, and negative values occur. Compounds were drawn at random from those tested, without regard to their results. Two or more numbers in one place are separate tests of the same structure; such repeats can differ widely.

Compound: CCOCC1CN(C(=O)c2ccco2)Cc2nn(C)cc21 (centres unmarked)
effect: -9.088

Compound: CN(C)C(=O)CN1CCCC(c2nccnc2-c2cccc(Cl)c2)C1 (centres unmarked)
effect: 18.58 & -9.248

Compound: CC(C)c1nnc2sc(CC3CCS(=O)(=O)CC3)nn12
effect: -1.913

Compound: Cc1nc(CN2C(=O)CC3(CCN(C(N)=O)CC3)c3ccccc32)cs1.O=C(O)C(F)(F)F
effect: -2.178

Compound: COc1ccccc1CCNC(=O)C1CCC(Cn2cnnn2)CC1 (centres unmarked)
effect: -23.71

Compound: [H][C@@]12CCC(=O)N(CCNC)[C@]1([H])CCN(c1ncc(F)cn1)C2
effect: -5.175

Compound: CCOC(=O)CC(c1cccc(OC)c1OC)c1c(C)[nH][nH]c1=O (centres unmarked)
effect: 14.2 & 3.935

Compound: c1ccc(OCc2ccncc2)c(CNC2CCc3ncnn3C2)c1 (centres unmarked)
effect: -26.82

Compound: CC(C)NC(=O)c1ccn(COc2c(Cl)cccc2Cl)n1
effect: 1.068

Compound: Cc1nc(C)c(CNC(=O)N2CCN(c3ccc(Cl)cn3)CC2)s1
effect: 3.161

Compound: CCCC(C)(C)NC(=O)CCN1CCOC1=O
effect: -11.79

Compound: CN(CCN1CCOC1=O)CC(=O)Nc1cc(F)cc(F)c1
effect: 12.61

Compound: CC(C)=CCC1(CO)CCCN(Cc2cnc(N3CCOCC3)nc2)C1 (centres unmarked)
effect: 29.71

Compound: CN1CCOC(CNCc2nc(-c3ccccc3)cs2)C1 (centres unmarked)
effect: 4.718

Compound: O=C(c1ccccn1)N1CCC(Cc2cnc3[nH]ccc3c2)CC1
effect: -1.765

Compound: CC(=O)c1cn(CCC(=O)NCCC(=O)O)c2ccccc12
effect: -11.9

Compound: COCCN(C)CCN1CC2(CCN(C3CCCCC3)CC2)OC1=O
effect: 3.829 & 1.029

Compound: Fc1ccc(C2(CNC3=NCCN3)CCCC2)cc1.I
effect: -11.74 & 3.947

Compound: O=C(c1ccc[nH]1)N1CCOCC12CCCC2
effect: 4.998 & -20.9

Compound: CCN1CC(COC(=O)c2cc(C)nn2CC)CC1=O (centres unmarked)
effect: 21.6

Compound: O=C(O)C(F)(F)F.O=C(O)C(F)(F)F.[H][C@@]12CCN(Cc3ccncc3)C(=O)[C@@]1([H])CN(Cc1ccc(C)s1)C2
effect: 0.4948

Compound: Cc1c(C2CCOC(C)(C)C2)nc(N)c(C#N)c1-c1ccc(O)cc1 (centres unmarked)
effect: -26.32 & -3.373

Compound: [H][C@]12CCCCN1CCC[C@H]2CCC(=O)N1Cc2nc(C)[nH]c(=O)c2C1
effect: -35.38

Compound: Cn1nc(CNC(=O)C2CCCCC2)cc1C1CC1
effect: -20.72

Compound: COc1cc(F)ccc1N(C)Cc1ccncc1
effect: -15.95

Compound: O=C(O)c1ccccc1-c1ccc(Cn2c(=O)cc[nH]c2=O)cc1
effect: -16.57

Compound: O=c1c2ccccc2nc2n1C(CSc1ccc(Cl)cc1)CN2 (centres unmarked)
effect: -2.959

Compound: COc1cccc(N2CCC(CNc3cc(C)nc4ncnn34)C2)c1 (centres unmarked)
effect: 15.96

Compound: Cc1cccc(N2CC(c3nnc(N)s3)CC2=O)c1 (centres unmarked)
effect: 2.666

Compound: Cn1cnc2c1CCN(CCS(=O)(=O)c1ccccc1)C2
effect: 30.7

Compound: COCCOc1ccc(CNc2nc3ccccc3o2)cn1
effect: -20.55

Compound: CN1CCN(CCCNC(=O)c2nc3ccccc3c(=O)[nH]2)CC1
effect: -27.76

Compound: CN(C)CCn1c(=O)oc2ccc(NC(=O)N3CCCCCC3)cc21
effect: -6.159 & -8.532

Compound: NCc1n[nH]c(-c2cccc(F)c2)n1
effect: -49.15